Source: patent US20130338130A1 (priority 2009, published 2013)
Read-outs that look alike come from different tables or passages of the source. The source gives many values for each of these; only a part stands here.

How the values were obtained:
[1] = tested on: ATCC strain 43300 Staphylococcus aureus; test: MRSA survival in MSM, DMSO and oxacillin, 48 hours (Example 2)
[2] = tested on: ATCC strain 43300 Staphylococcus aureus; conditions: 24 hours

Compound: CS(C)(=O)=O [MSM, Methylsulfonylmethane]
- survival (Log cfu/ml) ([1]; (MA) 6 μg/ml oxacillin + MSM (% MSM in label), 25° C., inoculum Log=7.49, listed as 5% MSM): 6.7 Log cfu/ml
- survival (Log cfu/ml) ([1]; (MA) 6 μg/ml oxacillin + MSM (% MSM in label), 25° C., inoculum Log=7.49, listed as 6% MSM): 6.6 Log cfu/ml
- survival (Log cfu/ml) ([1]; (MA) 6 μg/ml oxacillin + MSM (% MSM in label), 25° C., inoculum Log=7.49, listed as 7% MSM): 6.8 Log cfu/ml
- survival (Log cfu/ml) ([1]; (MA) 6 μg/ml oxacillin + MSM (% MSM in label), 25° C., inoculum Log=7.49, listed as 8% MSM): 5.9 Log cfu/ml
- survival (Log cfu/ml) ([1]; (MA) 6 μg/ml oxacillin + MSM (% MSM in label), 25° C., inoculum Log=7.49, listed as 9% MSM): 5.5 Log cfu/ml
- survival (Log cfu/ml) ([1]; (MA) 6 μg/ml oxacillin + MSM (% MSM in label), 25° C., inoculum Log=7.49, listed as 10% MSM): 5.1 Log cfu/ml
- survival (Log cfu/ml) ([1]; (MA) 6 μg/ml oxacillin + MSM (% MSM in label), 25° C., inoculum Log=7.49, listed as 11% MSM): 4.8 Log cfu/ml
- survival (Log cfu/ml) ([1]; (MA) 6 μg/ml oxacillin + MSM (% MSM in label), 25° C., inoculum Log=7.49, listed as 12% MSM): 4.6 Log cfu/ml
- survival (Log cfu/ml) ([1]; (MA) 6 μg/ml oxacillin + MSM (% MSM in label), 25° C., inoculum Log=7.49, listed as 13% MSM): 4.6 Log cfu/ml
- survival (Log cfu/ml) ([1]; (MA) 6 μg/ml oxacillin + MSM (% MSM in label), 25° C., inoculum Log=7.49, listed as 14% MSM): 4.8 Log cfu/ml
- survival (Log cfu/ml) ([1]; (MA) 6 μg/ml oxacillin + MSM (% MSM in label), 25° C., inoculum Log=7.49, listed as 15% MSM): 4.9 Log cfu/ml
- survival (Log cfu/ml) ([1]; (MA) 6 μg/ml oxacillin + MSM (% MSM in label), 25° C., inoculum Log=7.49, listed as 16% MSM): 5.1 Log cfu/ml
- survival (Log cfu/ml) ([1]; (MDA) 6 μg/ml oxacillin + MSM (% in label) + 1% DMSO, listed as 5% MSM): 6.2 Log cfu/ml
- survival (Log cfu/ml) ([1]; (MDA) 6 μg/ml oxacillin + MSM (% in label) + 1% DMSO, listed as 6% MSM): 6.1 Log cfu/ml
- survival (Log cfu/ml) ([1]; (MDA) 6 μg/ml oxacillin + MSM (% in label) + 1% DMSO, listed as 7% MSM): 5.9 Log cfu/ml
- survival (Log cfu/ml) ([1]; (MDA) 6 μg/ml oxacillin + MSM (% in label) + 1% DMSO, listed as 8% MSM): 5.8 Log cfu/ml
- survival (Log cfu/ml) ([1]; (MDA) 6 μg/ml oxacillin + MSM (% in label) + 1% DMSO, listed as 9% MSM): 5.9 Log cfu/ml
- survival (Log cfu/ml) ([1]; (MDA) 6 μg/ml oxacillin + MSM (% in label) + 1% DMSO, listed as 10% MSM): 5.8 Log cfu/ml
- survival (Log cfu/ml) ([1]; (MDA) 6 μg/ml oxacillin + MSM (% in label) + 1% DMSO, listed as 11% MSM): 5.8 Log cfu/ml
- survival (Log cfu/ml) ([1]; (MDA) 6 μg/ml oxacillin + MSM (% in label) + 1% DMSO, listed as 12% MSM): 5.8 Log cfu/ml
- survival (Log cfu/ml) ([1]; (MDA) 6 μg/ml oxacillin + MSM (% in label) + 1% DMSO, listed as 13% MSM): 5.8 Log cfu/ml
- survival (Log cfu/ml) ([1]; (MDA) 6 μg/ml oxacillin + MSM (% in label) + 1% DMSO, listed as 14% MSM): 5.7 Log cfu/ml
- survival (Log cfu/ml) ([1]; (MDA) 6 μg/ml oxacillin + MSM (% in label) + 1% DMSO, listed as 15% MSM): 5.7 Log cfu/ml
- survival (Log cfu/ml) ([1]; (MDA) 6 μg/ml oxacillin + MSM (% in label) + 1% DMSO, listed as 16% MSM): 5.5 Log cfu/ml
- survival, Average Log ([2]; 12 μg/ml methicillin + MSM (% in label), listed as 5% MSM): 2.9 Log
- survival, Average Log ([2]; 12 μg/ml methicillin + MSM (% in label), listed as 6% MSM): 2.6 Log
- survival, Average Log ([2]; 12 μg/ml methicillin + MSM (% in label), listed as 7% MSM): 2.7 Log
- survival, Average Log ([2]; 12 μg/ml methicillin + MSM (% in label), listed as 8% MSM): 3.0 Log
- survival, Average Log ([2]; 12 μg/ml methicillin + MSM (% in label), listed as 9% MSM): 3.0 Log
- survival, Average Log ([2]; 12 μg/ml methicillin + MSM (% in label), listed as 10% MSM): 3.1 Log
- survival, Average Log ([2]; 12 μg/ml methicillin + MSM (% in label), listed as 11% MSM): 3.3 Log
- survival, Average Log ([2]; 12 μg/ml methicillin + MSM (% in label), listed as 12% MSM): 3.5 Log
- survival, Average Log ([2]; 12 μg/ml methicillin + MSM (% in label), listed as 13% MSM): 3.5 Log
- survival, Average Log ([2]; 12 μg/ml methicillin + MSM (% in label), listed as 14% MSM): 3.9 Log
- survival, Average Log ([2]; 12 μg/ml methicillin + MSM (% in label), listed as 15% MSM): 3.8 Log
- survival, Average Log ([2]; 12 μg/ml methicillin + MSM (% in label), listed as 16% MSM): 3.0 Log
- survival, Average Log ([2]; 30 μg/ml methicillin + MSM (% in label), listed as 5% MSM): 2.6 Log
- survival, Average Log ([2]; 30 μg/ml methicillin + MSM (% in label), listed as 6% MSM): 2.4 Log
- survival, Average Log ([2]; 30 μg/ml methicillin + MSM (% in label), listed as 7% MSM): 2.5 Log
- survival, Average Log ([2]; 30 μg/ml methicillin + MSM (% in label), listed as 8% MSM): 3.0 Log
- survival, Average Log ([2]; 30 μg/ml methicillin + MSM (% in label), listed as 9% MSM): 3.1 Log
- survival, Average Log ([2]; 30 μg/ml methicillin + MSM (% in label), listed as 10% MSM): 3.1 Log
- survival, Average Log ([2]; 30 μg/ml methicillin + MSM (% in label), listed as 11% MSM): 3.5 Log
- survival, Average Log ([2]; 30 μg/ml methicillin + MSM (% in label), listed as 12% MSM): 3.5 Log
- survival, Average Log ([2]; 30 μg/ml methicillin + MSM (% in label), listed as 13% MSM): 3.8 Log
- survival, Average Log ([2]; 30 μg/ml methicillin + MSM (% in label), listed as 14% MSM): 3.8 Log
- survival, Average Log ([2]; 30 μg/ml methicillin + MSM (% in label), listed as 15% MSM): 3.9 Log
- survival, Average Log ([2]; 30 μg/ml methicillin + MSM (% in label), listed as 16% MSM): 4.0 Log
- survival, Average Log ([2]; 60 μg/ml methicillin + MSM (% in label), listed as 5% MSM): 2.9 Log
- survival, Average Log ([2]; 60 μg/ml methicillin + MSM (% in label), listed as 6% MSM): 2.6 Log
- survival, Average Log ([2]; 60 μg/ml methicillin + MSM (% in label), listed as 7% MSM): 2.8 Log
- survival, Average Log ([2]; 60 μg/ml methicillin + MSM (% in label), listed as 8% MSM): 3.0 Log
- survival, Average Log ([2]; 60 μg/ml methicillin + MSM (% in label), listed as 9% MSM): 3.2 Log
- survival, Average Log ([2]; 60 μg/ml methicillin + MSM (% in label), listed as 10% MSM): 3.3 Log
- survival, Average Log ([2]; 60 μg/ml methicillin + MSM (% in label), listed as 11% MSM): 3.6 Log
- survival, Average Log ([2]; 60 μg/ml methicillin + MSM (% in label), listed as 12% MSM): 3.6 Log
- survival, Average Log ([2]; 60 μg/ml methicillin + MSM (% in label), listed as 13% MSM): 3.8 Log
- survival, Average Log ([2]; 60 μg/ml methicillin + MSM (% in label), listed as 14% MSM): 3.9 Log
- survival, Average Log ([2]; 60 μg/ml methicillin + MSM (% in label), listed as 15% MSM): 3.9 Log
- survival, Average Log ([2]; 60 μg/ml methicillin + MSM (% in label), listed as 16% MSM): 3.9 Log
